Article PMC10934892
Results are given in words; binding and its absence hold for the method and conditions named. Binding seen in cells or lysates may run through a third protein. Here binding means that the protein was enriched with, or labelled near, the bait; the list need not be complete.

The chains behind the UniProt entries cited, without tags or fusion partners. Residues count along the entry.
UniProt P11021, residues 19-654: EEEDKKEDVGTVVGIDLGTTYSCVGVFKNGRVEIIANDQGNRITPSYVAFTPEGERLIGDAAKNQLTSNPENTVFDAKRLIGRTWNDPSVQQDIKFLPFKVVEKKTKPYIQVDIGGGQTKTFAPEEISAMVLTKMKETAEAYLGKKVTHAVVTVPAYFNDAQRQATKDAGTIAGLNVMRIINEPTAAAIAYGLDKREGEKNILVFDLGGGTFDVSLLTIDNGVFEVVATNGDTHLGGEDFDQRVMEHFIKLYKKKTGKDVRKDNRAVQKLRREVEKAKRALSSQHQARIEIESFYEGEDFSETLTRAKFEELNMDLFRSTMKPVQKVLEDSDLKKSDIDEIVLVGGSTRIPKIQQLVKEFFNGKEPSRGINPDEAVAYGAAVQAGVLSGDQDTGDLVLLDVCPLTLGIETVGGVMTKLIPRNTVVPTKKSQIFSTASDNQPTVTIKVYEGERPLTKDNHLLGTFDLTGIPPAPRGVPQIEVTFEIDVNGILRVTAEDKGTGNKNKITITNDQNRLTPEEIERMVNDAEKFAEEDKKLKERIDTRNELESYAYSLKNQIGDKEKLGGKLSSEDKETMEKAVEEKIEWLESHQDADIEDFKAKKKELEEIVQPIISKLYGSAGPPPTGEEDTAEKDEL

Target: T1, Regulator of ribosome synthesis 1 (RRS1) (human (endogenous in BT-549 and MDA-MB-231)) (UniProt Q15050)
T1 sequence: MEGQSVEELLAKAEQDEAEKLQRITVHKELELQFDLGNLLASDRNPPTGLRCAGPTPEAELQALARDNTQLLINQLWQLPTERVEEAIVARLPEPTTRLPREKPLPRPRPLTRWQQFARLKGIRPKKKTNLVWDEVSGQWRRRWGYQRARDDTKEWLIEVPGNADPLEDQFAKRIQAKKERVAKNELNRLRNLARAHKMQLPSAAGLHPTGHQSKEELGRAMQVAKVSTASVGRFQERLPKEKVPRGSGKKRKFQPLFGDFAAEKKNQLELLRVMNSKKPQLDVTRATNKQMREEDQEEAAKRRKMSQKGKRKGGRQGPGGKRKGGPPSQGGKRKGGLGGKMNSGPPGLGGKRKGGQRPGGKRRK
Assay: affinity purification with mass spectrometry; Co-IP combined with LC-MS/MS (in-gel trypsin digest, Orbitrap Elite); antibody and bait of the IP not stated

binding: binds
Substance: Glucose-Regulated Protein 78 (GRP78) (from UniProt P11021 19-654)
